{"source": "PubChem BioAssay AID504764 – Drosophila RNAi Screening Center – 2011", "screen": "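Genome-wide screen for regulators of Notch-driven gene expression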 (primary screen)", "system": "Drosophila Kc167 cells", "reagent": "long dsRNA against Drosophila genes", "timing": "about 5 days (4 days dsRNA, then 24 h after transfection)", "treatment": "transfection of constitutively active membrane-tethered Notch lacking the extracellular domain, read 24 h later", "measured": "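Firefly luciferase from an E(spl)m3 reporter with active Notch, plus control-promoter and uninduced reporter wells for normalisation; unnormalised counts, duplicate wells a and b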", "scale": "induced reporter light, run 1, well a and induced reporter light, run 1, well b: higher = more light from the Notch target reporter with active Notch; control promoter light, run 1, well a and control promoter light, run 1, well b: higher = more light from the viral control promoter (cell number, transfection, viability); uninduced reporter light, run 1, well a: higher = more light from the Notch target reporter without active Notch", "rule for the call": "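Wells with low control signal or poorly matching duplicates excluded; duplicates averaged; per source plate, z beyond ±2 for induced/control log2 ratio or beyond ±1.8 for induced/uninduced marks a hit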", "meaning of the calls": "active = modifier hit (raised or lowered Notch signal); inactive = not a hit", "note": "The deposit covers about 22,000 reagents; shown is a random part of those with a known target gene and a result. In the full data, 403 (1.9%) were called active. 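Unnormalised raw counts per well; ratio z-scores behind the hit calls and whether each hit raises or lowers signal are not deposited.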 Unmarked entries are inactive. Reagent sequences are not shown. Not given: the amount of reagent."}
{"target":"CG9062","DRSC id":"DRSC07327","induced reporter light, run 1, well a":1.07e5,"induced reporter light, run 1, well b":91140,"control promoter light, run 1, well a":1.26e5,"control promoter light, run 1, well b":92550,"uninduced reporter light, run 1, well a":9950}
{"target":"CG5885","DRSC id":"DRSC02910","induced reporter light, run 1, well a":"2.93e5 (active)","induced reporter light, run 1, well b":3.13e5,"control promoter light, run 1, well a":1.89e5,"control promoter light, run 1, well b":1.78e5,"uninduced reporter light, run 1, well a":17875}
{"target":"Leash","DRSC id":"DRSC15617","induced reporter light, run 1, well a":70565,"induced reporter light, run 1, well b":83145,"control promoter light, run 1, well a":86470,"control promoter light, run 1, well b":61475,"uninduced reporter light, run 1, well a":3980}
{"target":"CG34133","DRSC id":"DRSC16319","induced reporter light, run 1, well a":90990,"induced reporter light, run 1, well b":1.00e5,"control promoter light, run 1, well a":1.05e5,"control promoter light, run 1, well b":88485,"uninduced reporter light, run 1, well a":6675}
{"target":"HisT (Histamine transporter)","DRSC id":"DRSC05051","induced reporter light, run 1, well a":50710,"induced reporter light, run 1, well b":72975,"control promoter light, run 1, well a":78040,"control promoter light, run 1, well b":64995,"uninduced reporter light, run 1, well a":2940}
{"target":"HisT (Histamine transporter)","DRSC id":"DRSC05052","induced reporter light, run 1, well a":51570,"induced reporter light, run 1, well b":55505,"control promoter light, run 1, well a":69080,"control promoter light, run 1, well b":81295,"uninduced reporter light, run 1, well a":2050}
{"target":"HisT (Histamine transporter)","DRSC id":"DRSC06405","induced reporter light, run 1, well a":1.92e5,"induced reporter light, run 1, well b":1.80e5,"control promoter light, run 1, well a":1.31e5,"control promoter light, run 1, well b":1.40e5,"uninduced reporter light, run 1, well a":11535}
{"target":"Prp4k (Pre-mRNA processing factor 4 kinase)","DRSC id":"DRSC08144","induced reporter light, run 1, well a":86760,"induced reporter light, run 1, well b":80320,"control promoter light, run 1, well a":1.12e5,"control promoter light, run 1, well b":1.11e5,"uninduced reporter light, run 1, well a":6455}
{"target":"wech","DRSC id":"DRSC06606","induced reporter light, run 1, well a":1.45e5,"induced reporter light, run 1, well b":1.46e5,"control promoter light, run 1, well a":1.51e5,"control promoter light, run 1, well b":1.32e5,"uninduced reporter light, run 1, well a":11330}
{"target":"Scgdelta (Sarcoglycan delta)","DRSC id":"DRSC18544","induced reporter light, run 1, well a":1.21e5,"induced reporter light, run 1, well b":87755,"control promoter light, run 1, well a":1.55e5,"control promoter light, run 1, well b":2.12e5,"uninduced reporter light, run 1, well a":6300}
{"target":"ena (enabled)","DRSC id":"DRSC05779","induced reporter light, run 1, well a":1.20e5,"induced reporter light, run 1, well b":1.12e5,"control promoter light, run 1, well a":1.42e5,"control promoter light, run 1, well b":1.09e5,"uninduced reporter light, run 1, well a":8525}
{"target":"ena (enabled)","DRSC id":"DRSC07610","induced reporter light, run 1, well a":77900,"induced reporter light, run 1, well b":76195,"control promoter light, run 1, well a":1.23e5,"control promoter light, run 1, well b":1.71e5,"uninduced reporter light, run 1, well a":6640}
{"target":"Top2 (Topoisomerase 2)","DRSC id":"DRSC03459","induced reporter light, run 1, well a":14975,"induced reporter light, run 1, well b":15130,"control promoter light, run 1, well a":19415,"control promoter light, run 1, well b":13010,"uninduced reporter light, run 1, well a":1890}
{"target":"CalpB (Calpain-B)","DRSC id":"DRSC11109","induced reporter light, run 1, well a":1.32e5,"induced reporter light, run 1, well b":1.53e5,"control promoter light, run 1, well a":1.16e5,"control promoter light, run 1, well b":78300,"uninduced reporter light, run 1, well a":15225}
{"target":"CG32017","DRSC id":"DRSC17183","induced reporter light, run 1, well a":51185,"induced reporter light, run 1, well b":58655,"control promoter light, run 1, well a":71815,"control promoter light, run 1, well b":84230,"uninduced reporter light, run 1, well a":4515}
{"target":"Achl (Achilles)","DRSC id":"DRSC06665","induced reporter light, run 1, well a":1.00e5,"induced reporter light, run 1, well b":88300,"control promoter light, run 1, well a":1.24e5,"control promoter light, run 1, well b":1.34e5,"uninduced reporter light, run 1, well a":8185}
{"target":"CG13218","DRSC id":"DRSC06340","induced reporter light, run 1, well a":87625,"induced reporter light, run 1, well b":76995,"control promoter light, run 1, well a":1.01e5,"control promoter light, run 1, well b":1.12e5,"uninduced reporter light, run 1, well a":8975}
{"target":"Cpr60D (Cuticular protein 60D)","DRSC id":"DRSC04492","induced reporter light, run 1, well a":1.38e5,"induced reporter light, run 1, well b":1.47e5,"control promoter light, run 1, well a":1.56e5,"control promoter light, run 1, well b":1.28e5,"uninduced reporter light, run 1, well a":9578}
